Data as given in patent US20250352608A1, “POLYPEPTIDES HAVING ANTI-INFLAMMATORY EFFECTS AND USES THEREOF” (OneSkin, Inc., priority 2020, published 2025).
At least one peptide structure holds a part that was inferred or is arguable (an end, a ring closure or a residue). Ends that are not written are not given here.

How the values were obtained:
[1] = test system: HGPS human dermal fibroblasts; experiment: RNA-Seq gene expression; type: cell-based
fibroblasts = experiment: mRNA expression of SIRT6, BLM, EXO1 by qPCR; type: cell-based, human; details: 48 hours
[2] = test system: ex vivo skin biopsies (donors); experiment: Topical application to ex vivo skin biopsies; type: cell-based, human; details: vs untreated
Text: Senescent cell accumulation in the skin has been related to facial wrinkling and perceived age. A formulation having a concentration of Peptide 14 in the formulation was adjusted (0.01% w/v) to support the skin penetration of the Peptide 14 of up to 2% into the dermis was applied to ex vivo skin biopsies (from donors). A topical retinol application group was used as an “anti-aging” control, due to its widespread and decades-long use in the field, along with a no treatment control group.

[3] = test system: ex vivo human skin samples; experiment: Ex vivo human skin: DNA methylation age and histology; type: cell-based; details: 12.5 μM, 5 days; untreated about 71
[4] = test system: Macrophages derived from the U-937 cell line; experiment: NO release (Griess reaction); type: cell-based, human; details: with 0.5 μg/mL LPS, 24 hours
pAkt S473 = experiment: Akt S473 phosphorylation western blot in skin equivalents; type: cell-based, human; details: 1p M, 5 days
Description: In order to shed light into the mechanism of action of Peptide 14 and similar Peptide 13, Akt S473 phosphorylation (FIG. 8, panel A), senescence associated β-galactosidase staining (FIG. 8, panel B), as well as mRNA expression (FIG. 8, panel C) were investigated. For Akt S473 phosphorylation analysis using western blotting, human primary fibroblasts and keratinocytes were used. These cells were used to build human skin equivalents, which were kept in a 5% CO2, 37° C. and 95% humidity atmosphere air liquid interface. Then, skin equivalents were treated with 1p M of either Peptide 14 or Peptide 13 for 5 days, and protein analysis was performed on the skin equivalents. Protein was isolated and quantified. Equal amounts of protein were loaded in polyacrylamide gels and transferred into a nitrocellulose membrane. […] Relative pAkt S473/GAPDH signal was compared between treated and non-treated samples. For senescence associated B-galactosidase staining experiments, fibroblasts were used. […] Total RNA was isolated, samples were reverse transcribed, and mRNA expression of GAPDH, sirtuin 6 (SIRT6), BLM, and exonuclease 1 (EXO1) genes were determined using qPCR. […] CT values were analyzed using the 2^−ΔΔCt method. […] Data was analyzed using a T-test. Statistical significance was determined as p values equal or lower than 0.05 (FIG. 8).

[5] = test system: peripheral blood mononuclear cells (PBMCs); experiment: PBMC proliferation with PHA activation (MTT); type: cell-based, human; details: with 5 μg/mL PHA, 5 days (Peptide 14 3.12 μM; rapamycin 100 nM)
Description: The effect of Peptide 14 on T cell activation was assessed by treating PBMCs stimulated with phytohaemagglutinin (PHA) with Peptide 14. PHA usually can trigger lymphocyte activation and cell division. PBMCs that were untreated with PHA or Peptide 14 served as negative control of lymphocyte activation. In the phytohaemagglutinin group, the PBMCs were activated with 5 μg/mL of PHA for 5 days. In the Peptide 14 and PHA group, the PBMCs were activated with 5 μg/mL of PHA and treated with 3.12 μM of Peptide 14 for 5 days. In the Peptide 14 group, the PBMCs were treated with 3.12 μM of Peptide 14 for 5 days. In the rapamycin group, the PBMCs were treated with 100 nM of rapamycin, a well-known immunosuppressive drug for 5 days. In the rapamycin+PHA group, the PBMCs were activated with 5 μg/mL of PHA and treated with 100 nM of rapamycin for 5 days. The viability and proliferation of PBMCs were analyzed by MTT assay. Briefly, after 5 days of treatment, the cells were incubated with […] MTT reagent for 4 hours. Then, 100 μL of DMSO was added into each well, and the absorbance was detected at 595 nm.

human skin = experiment: Topical formulation applied to human skin; type: in vivo; details: for appearance of wrinkles: topical formulation with niacin, vitamin E
[6] = RNA-Seq, HGPS HDFs, 12.5 μM vs control
[7] = RNA-Seq, HGPS HDFs, 12.5 μM vs control, listed as peptide 14

With ETAKHWLKGI [Peptide 14, ETAKHWLKGI] the “gene expression signature of top 20 genes compared with aging datasets” value ([1]; 12.5 μM, public HDF RNA-seq of HGPS and healthy donors aged 1-94) was “promoted a “rejuvenated” gene expression signature”, the “LogFoldChange (LFC) TGFBR1” value [1, 6] was −0.52 and the “log2 Fold Change ABCA1” value [1, 6] was −0.4849. The “log2 Fold Change AP2S1” value [1, 6] was 0.2494, the “log2 Fold Change CCDC167” value [1, 6] was 0.3431 and the “log2 Fold Change ID4” value [1, 6] was −0.6416. For the same sequence, the “log2 Fold Change IL6ST” value [1, 6] was −0.4319, the “log2 Fold Change LINC01341” value [1, 6] was 1.897 and the “log2 Fold Change NAA10” value [1, 6] was 0.2996. The “log2 Fold Change NDUFS8” value [1, 6] was 0.2642, the “log2 Fold Change NXT2” value [1, 6] was −0.5078 and the “log2 Fold Change PAQR3” value [1, 6] was −0.5115. The “log2 Fold Change POMK” value [1, 6] was −1.165, the “log2 Fold Change RB1CC1” value [1, 6] was −0.2888 and the “log2 Fold Change RBL2” value [1, 6] was −0.3. For the same sequence, the “log2 Fold Change SIRT1” value [1, 6] was −0.43, the “log2 Fold Change SLC2A13” value [1, 6] was −0.64 and the “log2 Fold Change SLC25A19” value [1, 6] was 0.6219. For the same sequence, the “log2 Fold Change SNORC” value [1, 6] was 0.9297, the “log2 Fold Change UBE2D1” value [1, 6] was −0.3842 and the “log2 Fold Change WASHC4” value [1, 6] was −0.4488. For the same sequence, the “log2 Fold Change ZNF296” value [1, 6] was 0.9758, the “log2 Fold Change RBL2” value [1, 7] was −0.3007 and the “log2 Fold Change SIRT1” value [1, 7] was −0.4323. The “BLM mRNA expression” value (fibroblasts) was “increased”, the “SIRT6 mRNA expression” value (fibroblasts) was “increased” and the “B2M expression, dermis” value ([2]; topical application) was “significantly decreased”. The “B2M expression, epidermis” value ([2]; topical application) was “significantly decreased”, the HYAL-1 expression ([2]; topical application) was “significant reduction” and the “IL6 level, epidermis” value ([2]; topical application) was “did not alter”. The “IL8 level, epidermis” value ([2]; topical application) was “did not alter”, the “Ki-67 expression, epidermis” value ([2]; topical application) was “significantly increased” and the “P16 mRNA expression, epidermis” value ([2]; topical application) was “significant decrease”. The “TYR expression, epidermis” value ([2]; topical application) was “significantly reduced”, the “dermal Ki67 expression” value ([2]; topical application) was “significantly induced” and the “dermal collagen 1 expression” value ([2]; topical application) was “significantly induced”. For the same sequence, the epidermal thickness ([2]; topical, 0.01% w/v formulation) was “significant increase”, the “mean of predicted age (molecular DNA age)” value [3] was “about 68” and the “NO release vs LPS alone” value [4] was “lower level”. The “pAkt S473, dermal samples” value (pAkt S473) was “significantly decreased”, the “pAkt S473, epidermal samples” value (pAkt S473) was “significantly decreased” and the “relative PBMC proliferation, % of negative control” value [5] was “about 110%”. The skin appearance parameters (human skin; topical formulation of Table 7 comprising Peptide 14) was “reduction of at least one of appearance of wrinkles”, the appearance of wrinkles (human skin; between 50-150 μM Peptide 14) was “reduction of the appearance of wrinkles” and the appearance of wrinkles (human skin; between 75-100 μM Peptide 14) was “reduction of the appearance of wrinkles”.
